The list shows a part of the results. Most values lie at the level of the controls, where differences are scatter.
Compound: CN[C@@H]1C[C@H]2O[C@@](C)([C@@H]1OC)n1c3ccccc3c3c4c(c5c6ccccc6n2c5c31)C(=O)NC4 [staurosporine]
Assay: log2 fold change of tryptic peptide abundance, ligand vs vehicle (limited proteolysis) (log2 ratio); higher = more trypsin-susceptible (destabilized)
Settings: ligand concentration: 20 uM; sample: mouse liver crude lysate; replicate design: treated separately

The chains behind the UniProt entries cited, without tags or fusion partners. Where a name states a change or a piece, a line headed by the entry shows the natural chain unless it says otherwise.
UniProt Q8VCM7: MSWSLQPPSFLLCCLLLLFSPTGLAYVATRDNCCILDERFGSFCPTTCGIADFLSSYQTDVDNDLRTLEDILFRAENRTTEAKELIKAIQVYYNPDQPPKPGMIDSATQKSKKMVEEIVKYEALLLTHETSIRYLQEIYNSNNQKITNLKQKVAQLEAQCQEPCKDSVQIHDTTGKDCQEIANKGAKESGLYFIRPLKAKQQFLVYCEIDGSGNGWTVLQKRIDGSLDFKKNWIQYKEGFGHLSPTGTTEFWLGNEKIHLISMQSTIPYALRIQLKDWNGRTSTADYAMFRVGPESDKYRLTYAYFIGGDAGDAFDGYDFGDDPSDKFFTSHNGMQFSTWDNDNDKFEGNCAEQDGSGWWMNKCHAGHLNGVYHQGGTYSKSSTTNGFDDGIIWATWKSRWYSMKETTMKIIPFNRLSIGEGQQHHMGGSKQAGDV
UniProt Q8R5M8: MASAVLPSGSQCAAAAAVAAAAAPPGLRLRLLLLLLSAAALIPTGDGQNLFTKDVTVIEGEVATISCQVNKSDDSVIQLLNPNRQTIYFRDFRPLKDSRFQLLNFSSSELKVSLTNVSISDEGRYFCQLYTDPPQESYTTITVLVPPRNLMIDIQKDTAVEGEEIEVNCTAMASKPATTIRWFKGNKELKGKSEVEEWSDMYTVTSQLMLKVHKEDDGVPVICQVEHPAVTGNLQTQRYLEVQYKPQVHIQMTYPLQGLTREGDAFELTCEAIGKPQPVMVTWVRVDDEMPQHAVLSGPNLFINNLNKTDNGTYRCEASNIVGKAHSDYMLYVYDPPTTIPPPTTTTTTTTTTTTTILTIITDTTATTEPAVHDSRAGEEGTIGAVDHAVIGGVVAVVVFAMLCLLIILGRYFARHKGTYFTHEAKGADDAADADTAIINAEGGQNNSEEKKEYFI
UniProt Q8R4U7: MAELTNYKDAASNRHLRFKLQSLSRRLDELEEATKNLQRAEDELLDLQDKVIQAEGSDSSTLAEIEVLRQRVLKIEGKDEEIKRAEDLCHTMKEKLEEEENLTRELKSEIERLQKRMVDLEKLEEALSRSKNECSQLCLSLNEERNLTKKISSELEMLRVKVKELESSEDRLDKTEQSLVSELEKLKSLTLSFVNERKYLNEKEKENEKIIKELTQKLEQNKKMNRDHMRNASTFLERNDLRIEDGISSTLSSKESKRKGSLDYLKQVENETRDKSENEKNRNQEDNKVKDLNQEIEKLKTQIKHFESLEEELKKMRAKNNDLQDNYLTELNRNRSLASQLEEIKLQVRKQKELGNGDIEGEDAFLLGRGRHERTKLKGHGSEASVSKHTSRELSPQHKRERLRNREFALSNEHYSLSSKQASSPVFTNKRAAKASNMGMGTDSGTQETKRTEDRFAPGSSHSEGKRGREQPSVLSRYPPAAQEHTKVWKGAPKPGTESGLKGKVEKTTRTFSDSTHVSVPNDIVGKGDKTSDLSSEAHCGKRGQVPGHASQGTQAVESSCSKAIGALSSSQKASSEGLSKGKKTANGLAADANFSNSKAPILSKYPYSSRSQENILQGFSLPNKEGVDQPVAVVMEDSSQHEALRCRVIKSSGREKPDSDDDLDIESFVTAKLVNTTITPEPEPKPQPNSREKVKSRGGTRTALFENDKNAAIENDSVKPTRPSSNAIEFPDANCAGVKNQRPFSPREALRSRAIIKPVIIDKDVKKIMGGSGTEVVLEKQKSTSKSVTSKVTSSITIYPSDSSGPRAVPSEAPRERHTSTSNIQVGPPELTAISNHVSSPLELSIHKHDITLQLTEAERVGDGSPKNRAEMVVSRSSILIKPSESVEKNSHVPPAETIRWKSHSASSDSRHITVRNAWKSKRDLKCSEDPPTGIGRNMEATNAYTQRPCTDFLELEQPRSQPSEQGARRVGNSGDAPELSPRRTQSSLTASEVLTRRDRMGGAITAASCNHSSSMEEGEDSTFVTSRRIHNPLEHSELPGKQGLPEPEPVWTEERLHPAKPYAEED
UniProt Q8R4V1: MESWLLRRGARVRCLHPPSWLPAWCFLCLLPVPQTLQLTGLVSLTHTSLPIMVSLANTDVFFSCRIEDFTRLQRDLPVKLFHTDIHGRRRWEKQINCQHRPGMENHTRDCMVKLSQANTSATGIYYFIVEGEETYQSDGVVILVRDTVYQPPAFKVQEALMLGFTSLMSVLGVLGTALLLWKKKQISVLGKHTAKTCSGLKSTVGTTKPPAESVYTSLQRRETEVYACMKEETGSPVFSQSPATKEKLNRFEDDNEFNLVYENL
UniProt Q8R2V5: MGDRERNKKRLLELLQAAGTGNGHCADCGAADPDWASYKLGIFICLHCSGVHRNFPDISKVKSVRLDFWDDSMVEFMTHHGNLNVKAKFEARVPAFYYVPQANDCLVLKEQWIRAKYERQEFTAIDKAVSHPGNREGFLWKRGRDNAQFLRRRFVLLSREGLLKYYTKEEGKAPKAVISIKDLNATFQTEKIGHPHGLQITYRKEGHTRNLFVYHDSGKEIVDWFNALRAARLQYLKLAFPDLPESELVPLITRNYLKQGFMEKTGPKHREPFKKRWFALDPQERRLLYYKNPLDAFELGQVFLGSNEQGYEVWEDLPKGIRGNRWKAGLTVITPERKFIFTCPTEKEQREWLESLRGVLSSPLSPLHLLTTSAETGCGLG
UniProt Q8VCM5: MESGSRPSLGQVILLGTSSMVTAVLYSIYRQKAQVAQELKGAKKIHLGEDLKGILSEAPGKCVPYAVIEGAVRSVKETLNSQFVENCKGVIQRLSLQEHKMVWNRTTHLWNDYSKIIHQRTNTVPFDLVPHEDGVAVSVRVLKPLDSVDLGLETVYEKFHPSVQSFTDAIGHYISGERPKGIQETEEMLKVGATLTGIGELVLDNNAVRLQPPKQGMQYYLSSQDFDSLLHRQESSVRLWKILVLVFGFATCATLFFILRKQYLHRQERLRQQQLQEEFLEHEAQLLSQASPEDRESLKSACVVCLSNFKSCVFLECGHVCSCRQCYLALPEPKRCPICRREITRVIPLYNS
UniProt Q8VEC3: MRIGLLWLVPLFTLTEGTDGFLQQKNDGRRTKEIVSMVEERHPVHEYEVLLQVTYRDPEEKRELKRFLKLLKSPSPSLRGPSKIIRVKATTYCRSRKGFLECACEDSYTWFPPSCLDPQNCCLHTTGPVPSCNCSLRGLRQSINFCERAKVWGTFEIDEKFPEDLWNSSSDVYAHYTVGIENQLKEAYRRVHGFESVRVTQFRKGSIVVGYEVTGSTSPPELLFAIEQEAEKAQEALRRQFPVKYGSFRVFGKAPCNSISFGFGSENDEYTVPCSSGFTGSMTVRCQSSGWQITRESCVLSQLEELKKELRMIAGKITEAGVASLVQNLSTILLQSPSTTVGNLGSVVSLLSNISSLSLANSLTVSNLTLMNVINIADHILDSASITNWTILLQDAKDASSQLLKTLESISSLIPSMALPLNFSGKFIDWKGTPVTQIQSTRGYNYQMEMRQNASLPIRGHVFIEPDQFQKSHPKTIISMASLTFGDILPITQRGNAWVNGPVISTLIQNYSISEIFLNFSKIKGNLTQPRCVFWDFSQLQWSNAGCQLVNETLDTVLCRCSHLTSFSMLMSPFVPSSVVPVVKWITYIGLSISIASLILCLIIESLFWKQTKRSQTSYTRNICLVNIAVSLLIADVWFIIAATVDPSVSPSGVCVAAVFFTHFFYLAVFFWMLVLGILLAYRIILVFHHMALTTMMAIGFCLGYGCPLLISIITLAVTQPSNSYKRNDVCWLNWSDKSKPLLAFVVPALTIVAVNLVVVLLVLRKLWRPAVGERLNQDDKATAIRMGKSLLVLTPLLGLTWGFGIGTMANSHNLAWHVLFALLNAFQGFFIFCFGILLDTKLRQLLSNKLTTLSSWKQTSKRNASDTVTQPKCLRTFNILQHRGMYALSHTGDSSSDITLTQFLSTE
UniProt Q8VCA8: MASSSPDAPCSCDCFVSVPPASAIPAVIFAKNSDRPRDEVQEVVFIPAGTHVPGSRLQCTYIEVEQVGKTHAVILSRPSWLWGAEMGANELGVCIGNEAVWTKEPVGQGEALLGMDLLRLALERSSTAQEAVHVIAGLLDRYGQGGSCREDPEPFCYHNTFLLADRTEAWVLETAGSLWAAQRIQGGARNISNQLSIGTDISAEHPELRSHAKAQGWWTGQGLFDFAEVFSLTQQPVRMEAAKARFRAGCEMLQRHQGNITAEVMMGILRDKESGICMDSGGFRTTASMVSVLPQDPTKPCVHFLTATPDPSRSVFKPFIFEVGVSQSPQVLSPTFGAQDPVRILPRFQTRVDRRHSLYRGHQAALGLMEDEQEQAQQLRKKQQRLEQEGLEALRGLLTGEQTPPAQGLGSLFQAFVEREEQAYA
UniProt Q8VC26: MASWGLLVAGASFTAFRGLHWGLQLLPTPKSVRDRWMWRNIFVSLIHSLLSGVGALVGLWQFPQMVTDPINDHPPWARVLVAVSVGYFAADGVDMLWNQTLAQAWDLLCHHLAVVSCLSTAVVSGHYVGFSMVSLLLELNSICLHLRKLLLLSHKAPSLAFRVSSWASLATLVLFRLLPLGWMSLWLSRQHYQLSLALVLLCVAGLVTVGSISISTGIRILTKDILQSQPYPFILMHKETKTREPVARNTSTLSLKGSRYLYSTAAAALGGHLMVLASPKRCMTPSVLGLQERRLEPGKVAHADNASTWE
UniProt Q8VE47: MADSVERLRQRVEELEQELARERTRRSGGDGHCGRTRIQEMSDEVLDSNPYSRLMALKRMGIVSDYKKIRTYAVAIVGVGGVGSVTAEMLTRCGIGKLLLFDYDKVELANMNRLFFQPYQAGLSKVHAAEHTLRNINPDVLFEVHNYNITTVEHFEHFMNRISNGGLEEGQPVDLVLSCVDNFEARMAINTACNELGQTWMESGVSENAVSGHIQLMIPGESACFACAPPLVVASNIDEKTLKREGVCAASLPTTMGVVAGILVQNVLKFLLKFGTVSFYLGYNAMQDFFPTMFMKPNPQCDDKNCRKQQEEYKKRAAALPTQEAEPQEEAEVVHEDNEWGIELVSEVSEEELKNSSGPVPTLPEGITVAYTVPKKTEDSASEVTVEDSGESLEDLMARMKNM
UniProt Q8R5H1: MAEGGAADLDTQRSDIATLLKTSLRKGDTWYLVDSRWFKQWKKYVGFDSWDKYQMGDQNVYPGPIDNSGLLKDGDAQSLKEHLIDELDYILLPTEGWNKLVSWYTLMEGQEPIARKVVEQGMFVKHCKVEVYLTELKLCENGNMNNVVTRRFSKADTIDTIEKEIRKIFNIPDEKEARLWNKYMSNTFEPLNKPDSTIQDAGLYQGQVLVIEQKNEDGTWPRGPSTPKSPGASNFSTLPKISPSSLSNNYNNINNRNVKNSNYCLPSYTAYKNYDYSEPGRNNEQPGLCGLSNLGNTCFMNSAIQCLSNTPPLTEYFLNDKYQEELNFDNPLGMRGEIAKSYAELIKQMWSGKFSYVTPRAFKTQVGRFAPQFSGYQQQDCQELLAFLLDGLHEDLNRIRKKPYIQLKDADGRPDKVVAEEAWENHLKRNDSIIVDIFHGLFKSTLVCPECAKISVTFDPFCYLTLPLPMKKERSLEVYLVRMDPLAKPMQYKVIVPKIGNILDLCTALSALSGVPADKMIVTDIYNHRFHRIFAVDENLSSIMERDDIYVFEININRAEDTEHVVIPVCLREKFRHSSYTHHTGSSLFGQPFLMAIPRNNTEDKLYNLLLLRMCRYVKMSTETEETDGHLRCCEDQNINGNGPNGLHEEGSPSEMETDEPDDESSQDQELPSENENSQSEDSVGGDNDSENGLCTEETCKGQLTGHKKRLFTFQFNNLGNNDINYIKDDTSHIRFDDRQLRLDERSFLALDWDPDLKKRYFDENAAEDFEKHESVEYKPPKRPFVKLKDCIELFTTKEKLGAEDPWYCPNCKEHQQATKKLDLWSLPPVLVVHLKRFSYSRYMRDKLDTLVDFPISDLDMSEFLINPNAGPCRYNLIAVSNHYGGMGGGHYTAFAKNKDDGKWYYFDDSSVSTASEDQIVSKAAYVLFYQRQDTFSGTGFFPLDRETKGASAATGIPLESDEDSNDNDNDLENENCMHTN

Target	log2 fold change
UniProt Q8VCM7 (peptide sequence: KNWIQYK, peptide start residue: 231)	0.388
UniProt Q8R5M8 (peptide sequence: DFRPLKDSR, peptide start residue: 91)	0.114
UniProt Q8R4U7 (peptide sequence: NASTFLER, peptide start residue: 231)	-0.2
UniProt Q8R4V1 (peptide sequence: STVGTTKPPAESVYTSLQR, peptide start residue: 202)	0.0753
UniProt Q8R2V5 (peptide sequence: NFPDISKVK, peptide start residue: 54)	0.471
UniProt Q8VCM5 (peptide sequence: SCVFLECGHVCSCR, peptide start residue: 311)	0.19
UniProt Q8VEC3 (peptide sequence: TFNILQHR, peptide start residue: 877)	0.118
UniProt Q8VCA8 (peptide sequence: GHQAALGLMEDEQEQAQQLRK, peptide start residue: 361)	0.231
UniProt Q8VC26 (peptide sequence: GLHWGLQLLPTPK, peptide start residue: 18)	0.459
UniProt Q8VE47 (peptide sequence: MGIVSDYK, peptide start residue: 60)	-0.166
UniProt Q8R5H1 (peptide sequence: MIVTDIYNHR, peptide start residue: 520)	0.383

From the supplement of paper PMC12819154, “High-throughput peptide-centric local stability assay extends protein–ligand identification to membrane proteins, tissues and bacteria” (Nature Structural & Molecular Biology, 2025)
